According to patent US20220073922:
For some assays here: For at least one entry, the source does not settle the construct or the ends of the probe.

Chains of the proteins cited; added tags and fusions are not shown. Chains listed by the source or under a name are the forms on record and can include a tag or linker.
UniProt P15692, other isoform, or with tags, fused parts or gaps: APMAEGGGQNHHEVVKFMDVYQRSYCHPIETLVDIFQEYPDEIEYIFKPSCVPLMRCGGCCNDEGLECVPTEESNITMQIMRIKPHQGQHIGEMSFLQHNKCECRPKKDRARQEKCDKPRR
UniProt Q00731, other isoform, or with tags, fused parts or gaps: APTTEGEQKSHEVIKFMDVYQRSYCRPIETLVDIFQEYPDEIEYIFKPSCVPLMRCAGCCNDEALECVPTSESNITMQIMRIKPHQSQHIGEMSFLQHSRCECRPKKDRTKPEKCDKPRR
VEGF-165 (VEGFA isoform 165) (Homo sapiens), one chain, as listed by the source: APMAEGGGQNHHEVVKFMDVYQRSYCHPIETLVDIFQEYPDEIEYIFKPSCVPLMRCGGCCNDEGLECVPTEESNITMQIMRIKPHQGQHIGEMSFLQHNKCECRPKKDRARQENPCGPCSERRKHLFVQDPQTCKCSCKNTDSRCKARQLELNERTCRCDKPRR

How the values were obtained:
Test in all cases: flow cytometry
[1] = molecular target: VEGF-121 (VEGFA isoform 121) (Homo sapiens) (UniProt P15692); conditions: 2'-F all positions, purified recombinant protein, label: biotin
[2] = molecular target: VEGF-120 (Mus musculus) (UniProt Q00731); conditions: 2'-F all positions; range over all VEGF isoforms and vendors; PBSMCT, 37 C; purified recombinant protein; protein details: Shenandoah Biotechnology 200-52; label: biotin; variant of AMS0421
[3] = tested on: VEGF-165 (VEGFA isoform 165) (Homo sapiens); conditions: 2'-F all positions, PBSMCT, 37 C, purified recombinant protein, label: biotin

AUUCUGUCUUUUUAAAUAAUGUCCCCUUGUUGCACAUUACAGAA [AMS0403]
Kd ([1]; PBSMCT, 37 C): > 100 nM

CGCUAGAUGGCUAACACUAUUGUGGAGAUGCACUAGCG [AMS0427]
binding result [2]: binds

CGUGGCGAUGCGUUCCGUCGAGGAUCGGCGAACACG [AMS0425.16]
Kd ([1]; PBSMCT, 37 C, variant of AMS0425): > 100 nM
Kd ([3]; variant of AMS0425): > 100 nM

GCUCUUCAAUGUUAACUACCAAUCGUUGAUCGUUUUGCAGAAAAUUCC [AMS0405]
Kd ([1]; PBSMCT, 37 C): > 100 nM

GCUCUUCAGCCCCGCGCCGGGUCCCACUCUGCGCCGCUC [AMS0401]
Kd ([1]; DPBS pH 7.2, 2.5 mM MgCl2, 1 mM CaCl2, 0.01% Tween-20, 37 C): > 100 nM

GCUCUUCGGUGUUAACUACCAAUCGUUGAUCGUUUUGCAAAAAAUUCC [AMS0406]
Kd ([1]; PBSMCT, 37 C): > 100 nM

GGAAAACAGUAUAAUGUCUUGUUUCUUCUC [AMS0410]
Kd [3]: > 100 nM

GGUUUAUCUUAACUUUCUGCUACGAUACAGUUUUUGUUGA [AMS0411]
Kd [3]: > 100 nM

GUGCUUCAUAUCCGUCCCCCCCUUGCUGCG [AMS0402]
Kd ([1]; PBSMCT, 37 C): > 100 nM

UCCGCUUGCGGAGCACCUUCUGUAUUCUGC [AMS0409]
Kd [3]: > 100 nM

UCCGCUUGCGGAGCAGCUUCUGUAUUCUGC [AMS0407]
Kd [3]: > 100 nM

UCCGCUUGCGGAGCAUCUUCUGUAUUCUGC [AMS0408]
Kd [3]: > 100 nM

UUCUGUCUUUUUAGAUAAUGUCCCCUUGUUGCACAUUACA [AMS0404]
Kd ([1]; PBSMCT, 37 C): > 100 nM
